PMC5656663
No constants are given. Whether binding was seen depends on the method and setting. Binding seen in cells or lysates may run through a third protein. Some entries that bind do so weakly or less than the wild type.

Chains of the proteins cited; added tags and fusions are not shown. Lines headed by an entry give the natural chain unless they say otherwise; changes in a name come on top. A line that says so, or that is headed by a name, gives the form on record, which may keep a tag or linker. Residues count along the entry.
UniProt P63165, residues 1-97: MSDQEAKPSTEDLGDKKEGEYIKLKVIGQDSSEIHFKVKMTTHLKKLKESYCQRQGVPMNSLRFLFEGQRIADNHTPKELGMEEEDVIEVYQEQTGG
UniProt P19525: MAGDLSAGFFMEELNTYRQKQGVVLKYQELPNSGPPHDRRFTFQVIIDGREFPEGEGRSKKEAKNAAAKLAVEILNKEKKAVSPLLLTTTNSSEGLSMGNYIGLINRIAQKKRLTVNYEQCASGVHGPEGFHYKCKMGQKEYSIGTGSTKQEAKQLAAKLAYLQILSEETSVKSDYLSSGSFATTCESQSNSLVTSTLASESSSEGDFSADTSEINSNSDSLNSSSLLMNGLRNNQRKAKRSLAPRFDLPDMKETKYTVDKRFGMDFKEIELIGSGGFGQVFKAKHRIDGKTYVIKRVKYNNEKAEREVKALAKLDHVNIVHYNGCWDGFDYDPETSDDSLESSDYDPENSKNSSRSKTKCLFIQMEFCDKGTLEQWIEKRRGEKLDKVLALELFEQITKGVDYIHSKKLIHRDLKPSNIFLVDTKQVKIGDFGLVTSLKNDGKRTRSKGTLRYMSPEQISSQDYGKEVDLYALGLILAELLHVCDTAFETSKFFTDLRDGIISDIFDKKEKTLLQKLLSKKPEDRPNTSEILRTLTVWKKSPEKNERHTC
PKR-SIM102, PKR mutant in the SIM-102, in vitro-translated (P19525, form named): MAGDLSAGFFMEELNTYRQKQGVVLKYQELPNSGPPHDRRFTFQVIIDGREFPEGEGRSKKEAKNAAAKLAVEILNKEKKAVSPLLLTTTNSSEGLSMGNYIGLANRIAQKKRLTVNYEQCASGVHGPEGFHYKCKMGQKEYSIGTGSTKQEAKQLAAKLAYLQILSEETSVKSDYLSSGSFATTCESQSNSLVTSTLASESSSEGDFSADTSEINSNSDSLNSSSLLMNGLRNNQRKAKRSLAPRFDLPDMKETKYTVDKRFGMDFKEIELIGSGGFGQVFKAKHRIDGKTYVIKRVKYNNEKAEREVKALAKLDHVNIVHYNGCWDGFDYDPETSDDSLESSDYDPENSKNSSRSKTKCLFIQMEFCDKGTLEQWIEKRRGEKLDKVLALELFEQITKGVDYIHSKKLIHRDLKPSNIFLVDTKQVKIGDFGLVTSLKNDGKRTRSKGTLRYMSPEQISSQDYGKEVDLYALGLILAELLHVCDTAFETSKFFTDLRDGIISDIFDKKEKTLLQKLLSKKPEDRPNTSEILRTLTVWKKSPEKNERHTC
PKR-SIM163, PKR mutant in the SIM-163, in vitro-translated (P19525, form named): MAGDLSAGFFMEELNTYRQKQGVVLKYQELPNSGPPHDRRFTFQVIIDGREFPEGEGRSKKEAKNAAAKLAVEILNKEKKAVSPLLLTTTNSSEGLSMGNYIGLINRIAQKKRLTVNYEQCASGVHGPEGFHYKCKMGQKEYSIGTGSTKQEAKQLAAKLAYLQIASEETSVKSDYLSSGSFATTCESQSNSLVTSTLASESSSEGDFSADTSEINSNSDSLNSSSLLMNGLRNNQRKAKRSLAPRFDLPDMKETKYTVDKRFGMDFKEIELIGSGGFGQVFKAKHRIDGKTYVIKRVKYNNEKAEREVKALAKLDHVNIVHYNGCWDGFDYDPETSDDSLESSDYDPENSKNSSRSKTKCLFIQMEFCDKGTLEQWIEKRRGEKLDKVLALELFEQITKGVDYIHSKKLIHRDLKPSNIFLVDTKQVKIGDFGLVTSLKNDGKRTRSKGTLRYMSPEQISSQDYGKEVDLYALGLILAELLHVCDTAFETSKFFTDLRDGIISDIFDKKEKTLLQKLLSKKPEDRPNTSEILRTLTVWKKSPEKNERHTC

Target: GST-SUMO1 (UniProt P63165)
Experiment: pull-down; GST or GST-SUMO1 as bait; [35S]methionine-labeled in vitro-translated PKR WT, C-terminus or mutants as prey; autoradiography; only the target purified

Row | binding | Substance
1 | no binding | C-terminus of PKR (amino acids 266-550), [35S]methionine-labeled, in vitro-translated (from UniProt P19525 266-550) (domain or fragment)
2 | binds | PKR-SIM102, PKR mutant in the SIM-102, in vitro-translated (from UniProt P19525 1-551) (enzyme)
3 | binds | PKR-SIM163, PKR mutant in the SIM-163, in vitro-translated (from UniProt P19525 1-551) (enzyme)
4 | binds | PKR-WT, [35S]methionine-labeled in vitro-translated PKR protein (from UniProt P19525 1-551) (enzyme)
